Results reported in ChEMBL document CHEMBL1134960, “Benzotrithiole 2-oxide: a new family of thiol-activated DNA-cleaving functionalities” (Bioorg Med Chem Lett, 2002).
pIC50: −log10 of the molar value.

Tests used:
[1] = tested on: A549; assay: Cytotoxicity against […] cell lines A549 was determined; format: functional, cell-based; conditions: Homo sapiens
[2] = tested on: PC-3; assay: Cytotoxicity against prostate cancer cell lines PC-3 was determined; format: functional, cell-based; conditions: Homo sapiens

Compound `COc1cccc2c1C(=O)c1c(O)c3c(c(O)c1C2=O)C[C@@](O)(C(=O)CO)C[C@@H]3O[C@H]1C[C@H](N)[C@H](O)[C@H](C)O1` [DOXORUBICIN] has a pIC50 [1] of 8.57 and a pIC50 [2] of 7.30.
